The target in test [1] is thrombin. The test is described as follows: complex formation at different pH, western blot (FIG. 6A); complex somewhat decreased with increasing pH. (In western blotting, separated proteins are transferred to a membrane and probed.)
For test [2], the target named is thrombin. The test is described as follows: complex formation with heparin, western blot (FIG. 6B legend).

No constants are given. Whether binding was seen depends on the method and setting. Binding calls can cover weak binding; strength is not graded here.

The results in this text go back to US7666981.

B1: mouse prostasin-binding protein (mPBP) purified from mouse seminal vesicle fluid (protein, UniProt Q07235 20-397, looked up)
chain: SQFNSLSLEELGSNTGIQVFNQIIKSRPHENVVVSPHGIASILGMLQLGADGKTKKQLSTVMRYNVNGVGKVLKKINKAIVSKKNKDIVTVANAVFLRNGFKMEVPFAVRNKDVFQCEVQNVNFQDPASASESINFWVKNETRGMIDNLLSPNLIDGALTRLVLVNAVYFKGLWKSRFQPESTKKRTFVAGDGKSYQVPMLAQLSVFRSGSTRTPNGLWYNFIELPYHGESISMLIALPTESSTPLSAIIPHITTKTIDSWMNTMVPKRMQLVLPKFTAVAQTDLKEPLKALGITEMFEPSKANFTKITRSESLHVSHILQKAKIEVSEDGTKASAATTAILIARSSPPWFIVDRPFLFSIRHNPTGAILFLGQVNKP
As for B1, the binding result in the test with thrombin [1] and with thrombin [2] was “binds” throughout.
